# Primary screen of a compound library

The chains behind the UniProt entries cited, without tags or fusion partners.
UniProt E9BF75, entry or part of it: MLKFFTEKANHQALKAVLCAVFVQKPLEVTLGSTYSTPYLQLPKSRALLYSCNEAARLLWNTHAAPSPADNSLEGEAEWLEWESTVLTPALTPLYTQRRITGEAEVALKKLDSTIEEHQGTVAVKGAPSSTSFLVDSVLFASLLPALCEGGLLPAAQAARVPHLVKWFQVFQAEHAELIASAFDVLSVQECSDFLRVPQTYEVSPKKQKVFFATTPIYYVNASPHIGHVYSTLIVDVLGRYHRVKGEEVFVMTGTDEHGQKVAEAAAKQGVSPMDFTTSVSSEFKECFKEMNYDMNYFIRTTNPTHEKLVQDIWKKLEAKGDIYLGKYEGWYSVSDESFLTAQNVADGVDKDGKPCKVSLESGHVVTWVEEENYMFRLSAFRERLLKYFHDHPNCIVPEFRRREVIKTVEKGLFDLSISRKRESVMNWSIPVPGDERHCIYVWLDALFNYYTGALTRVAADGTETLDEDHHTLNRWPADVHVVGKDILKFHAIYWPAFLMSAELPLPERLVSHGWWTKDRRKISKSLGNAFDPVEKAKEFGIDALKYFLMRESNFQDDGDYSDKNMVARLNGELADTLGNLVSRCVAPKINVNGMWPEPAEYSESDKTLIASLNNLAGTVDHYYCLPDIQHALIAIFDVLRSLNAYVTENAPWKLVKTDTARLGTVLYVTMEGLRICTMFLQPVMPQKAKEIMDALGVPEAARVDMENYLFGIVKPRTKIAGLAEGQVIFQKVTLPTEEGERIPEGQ

From ChEMBL document CHEMBL3988442, “University of Dundee, Small-Polar-MMV Screening Library” (2021).

Results are percentages, as filed. The record does not define 0% and 100%; most values in the screen are far below 50% and negative numbers occur (in some assays of this library far below -100). This is an unselected part of the compounds tested.

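Primary screen of methionyl-tRNA synthetase; the read-out is not stated. Target: Methionyl-tRNA synthetase (putative), Leishmania donovani (UniProt E9BF75). The test concentration is not given. Values are per cent inhibition. About 68,000 compounds were tested under these conditions; 0.035% (about 24) showed 50% or more at least once.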

For O=C(Cc1cccc(F)c1)NCCNCc1cccnc1 the result was 15.1%.
For O=C(NCCc1cccnc1)Nc1cc(C(F)(F)F)c[nH]c1=O the result was 7.302%.
For COc1cccc(F)c1C(C)NC(=O)NCc1cc(C(C)C)no1 (centres undefined) the result was 8.333%.
For Cc1oncc1C(=O)N1CC2CC1(C(=O)NCc1ccco1)C2 the result was 4.444%.
For Cn1ccc(C(=O)N2CCCC(Cc3cnc4ccccc4c3)C2)n1 (centres undefined) the result was 8.235%.
For Cc1nc(NS(=O)(=O)c2cc(C)c(Br)cc2C)no1 the result was 8.696%.
For CN1CCC(NC(=O)[C@H]2CC[C@@H]3[C@@H](CCN3c3ncccn3)O2)CC1 the result was -8.271%.
For CNC(=O)[C@H]1CO[C@H]2CCN(c3ncc(F)cn3)C[C@H]2C1 the result was 12.88%.
For CCc1nc2n(n1)CC(NCC(=O)Nc1cc(C)nn1C)CC2 (centres undefined) the result was 18.44%.
For CC(c1ccccc1F)N1CCN(C(=O)Cc2ccncc2)CC1 (centres undefined) the result was 6.15%.
For CCc1[nH]nc(NC(=O)c2ccc(Cl)cn2)c1C the result was 2.957%.
For Clc1cccc(-c2noc(CCN3CCN(c4ccncc4)CC3)n2)c1 the result was 14.49%.
For O=C(c1cncc(NCC2COc3ccccc3C2)n1)N1CCCCC1 (centres undefined) the result was 8.13%.
For NC(=O)c1nc(-c2cccc(Cl)c2)oc1N the result was 16.13%.
For Cc1cc(CNCC2CNc3ccnn3C2)no1 (centres undefined) the result was 17.34%.
For CCc1c(C)nc2n(c1=O)CC(C(=O)Nc1ncccc1C)CS2 (centres undefined) the result was 7.285%.
For COc1cc(N2CC[C@@H](O)[C@@H]2Cc2cccnc2)ncn1 the result was 6.667%.
For CC(C)CNC(=O)c1nnsc1-c1ccccc1 the result was 9.915%.
For CCn1c(C)nnc1CN(C)C1CCN(Cc2ccccn2)C1 (centres undefined) the result was 12.1%.
For O=C(NCc1ccccc1)N1Cc2nc(COCC3CC3)oc2C1 the result was 6.266%.
For CC(C)c1nccn1CC(=O)Nc1ccnn1C(C)C(C)C (centres undefined) the result was 12.3%.
For O=C(NCC(Cc1cccc(F)c1)n1cccc1)C1CC1 (centres undefined) the result was 8.633%.
For CN(Cc1ccc(C(=O)O)cc1)C(=O)c1sccc1OC(F)F the result was -2.198%.
For Cc1noc(NC(=O)c2ccc(C#N)cc2)n1 the result was 16%.
For CCC(O)CNC(=O)c1cc(COc2ccc(OC)cc2Cl)[nH]n1 (centres undefined) the result was 18.54%.
For CN(Cc1ccsc1)c1nc(-c2ccccn2)nc2c1CCNCC2 the result was 12.9%.
For CCc1noc(C(C)N2CCN(CC(=O)N3CCOCC3)CC2)n1 (centres undefined) the result was 9.014%.
For COc1ccccc1OCCCN1CC=C(c2cnn(C)c2)CC1 the result was 8.865%.
For CC(C)Cn1cncc1Cn1cccc(C(F)(F)F)c1=O the result was 5.072%.

Some entries from above, unchanged:

Compound	inhibition
CCC(O)CNC(=O)c1cc(COc2ccc(OC)cc2Cl)[nH]n1 (centres undefined)	18.54%
Clc1cccc(-c2noc(CCN3CCN(c4ccncc4)CC3)n2)c1	14.49%
CCc1noc(C(C)N2CCN(CC(=O)N3CCOCC3)CC2)n1 (centres undefined)	9.014%